In article PMC9937922:
These are yes or no findings as the source states them, for the method shown. Binding seen in cells or lysates may run through a third protein. Some entries that bind do so weakly or less than the wild type.

Protein sequences, listed by entry. Tags and fused reporters are not part of them.
UniProt P12004: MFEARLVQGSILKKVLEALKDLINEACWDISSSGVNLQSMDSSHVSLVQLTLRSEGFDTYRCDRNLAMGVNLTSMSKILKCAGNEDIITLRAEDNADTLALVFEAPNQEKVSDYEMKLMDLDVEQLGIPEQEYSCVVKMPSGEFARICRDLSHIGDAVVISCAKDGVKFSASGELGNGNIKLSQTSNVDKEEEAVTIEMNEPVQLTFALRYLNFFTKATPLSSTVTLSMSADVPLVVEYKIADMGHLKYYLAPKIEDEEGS
UniProt P06733: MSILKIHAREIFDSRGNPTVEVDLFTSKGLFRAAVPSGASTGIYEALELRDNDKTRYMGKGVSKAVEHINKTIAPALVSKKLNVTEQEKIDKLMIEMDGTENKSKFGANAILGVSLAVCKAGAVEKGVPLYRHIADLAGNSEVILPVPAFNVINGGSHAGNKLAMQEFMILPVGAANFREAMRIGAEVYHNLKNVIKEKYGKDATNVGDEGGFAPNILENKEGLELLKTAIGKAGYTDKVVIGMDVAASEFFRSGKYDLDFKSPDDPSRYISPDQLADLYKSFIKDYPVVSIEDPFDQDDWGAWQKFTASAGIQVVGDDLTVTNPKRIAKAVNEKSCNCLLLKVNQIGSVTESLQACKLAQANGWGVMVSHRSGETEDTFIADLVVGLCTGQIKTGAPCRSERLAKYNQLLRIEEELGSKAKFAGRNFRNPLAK

Columns and labels:
[1] = target: proliferating cell nuclear antigen (PCNA) (human (endogenous in HAP1)) (UniProt P12004); assay: co-IP; Dynabeads Protein A cross-linked (BS3) with α-PCNA (PC10) or α-ENO1 (ab227978); 2 mg HAP1 cytosolic cell extract, 4 °C overnight; washes with 600 mM NaCl; western blot; both directions
[2] = target: proliferating cell nuclear antigen (PCNA) (human (endogenous in HAP1)) (UniProt P12004); assay: proximity ligation; in situ PLA on fixed WT HAP1 cells, untreated or treated with ATX-101 (20 μM) 5 times with 1 h interval, fixed 1–4 h after the last treatment
[3] = target: proliferating cell nuclear antigen (PCNA) (human (endogenous in HAP1)) (UniProt P12004); assay: condition: only cells treated with ATX-101 (20 μM) 5 times with 1 h intervals; proximity ligation; in situ PLA on fixed WT HAP1 cells, untreated or treated with ATX-101 (20 μM) 5 times with 1 h interval, fixed 1–4 h after the last treatment
[4] = target: alpha-enolase (ENO1) (human (endogenous in HAP1)) (UniProt P06733); assay: co-IP; Dynabeads Protein A cross-linked (BS3) with α-PCNA (PC10) or α-ENO1 (ab227978); 2 mg HAP1 cytosolic cell extract, 4 °C overnight; washes with 600 mM NaCl; western blot; both directions
[5] = target: proliferating cell nuclear antigen (PCNA) (human (endogenous in HAP1)) (UniProt P12004); assay: proximity ligation; synthetic ATX-101 (20 μM, 5 times with 1 h interval) added to WT HAP1 cells; loss of the ENO1 - PCNA PLA signal; only the binder purified

In the case of “alpha-enolase (ENO1) (from UniProt P06733 1-434) (enzyme)”, the binding [1] is reported as “binds”, the binding [2] is reported as “binds” and the binding [3] is reported as “no binding”.

With “proliferating cell nuclear antigen (PCNA) (from UniProt P12004 1-261)” the binding [4] was “binds”.

For MDRWLVKWKKKRKIRRRRRRRRRRR (N-terminal acetyl (Ac-)) [ATX-101], the binding [5] was “binds”.
